# Test results reported in PubChem BioAssay AID2551 (National Center for Advancing Translational Sciences (NCATS), 2010).
# By UniProt entry, the sequences of proteins in these tests, tags left out. Where a name states a change or a piece, a line headed by the entry shows the natural chain unless it says otherwise.
# UniProt P51450: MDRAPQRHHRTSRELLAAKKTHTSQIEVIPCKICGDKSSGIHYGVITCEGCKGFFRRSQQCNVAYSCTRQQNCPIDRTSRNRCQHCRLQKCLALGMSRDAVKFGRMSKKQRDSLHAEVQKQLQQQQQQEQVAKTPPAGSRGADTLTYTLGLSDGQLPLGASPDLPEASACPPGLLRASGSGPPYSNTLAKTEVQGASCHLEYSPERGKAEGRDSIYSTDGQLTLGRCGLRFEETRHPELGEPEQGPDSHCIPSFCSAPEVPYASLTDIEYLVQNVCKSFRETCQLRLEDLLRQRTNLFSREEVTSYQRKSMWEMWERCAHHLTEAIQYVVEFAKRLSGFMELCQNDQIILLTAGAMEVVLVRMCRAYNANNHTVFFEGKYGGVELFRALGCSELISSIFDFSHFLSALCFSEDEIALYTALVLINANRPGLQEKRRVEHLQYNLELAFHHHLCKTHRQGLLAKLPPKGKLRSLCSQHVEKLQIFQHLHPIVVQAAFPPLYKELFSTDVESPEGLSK
# Out of some 310,000 compounds screened, about 17,000 (5.5%) were called active. The inconclusive results got no clear call from the source; some entries with a clear call stand among them for comparison. The call rests on the fitted dose curve; in most records, active means well fitted inhibition curve with a large enough effect; inconclusive means small, poorly fitted or top-dose-only effect, or effect the other way; inactive means no such curve, though single readings can be large or run the other way. A potency beside an inconclusive call is a rough fit, not a confirmed value.
# Biological target: Nuclear receptor ROR-gamma (Mus musculus) (UniProt P51450)
# Assay: qHTS for inhibitors of ROR gamma transcriptional activity; further: nearly all actives have a fitted effect of over 60% in size
# Details: Drosophila S2 Gal4-RORgamma UAS-luciferase reporter, 20 h; series mostly up to 53.6 µM
# Method in brief: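 ROR gamma transcriptional activity was tracked as Gal4-UAS luciferase output in stably transfected Drosophila Schneider cells, with compound added 1 hr before 700 uM copper sulfate induction and a 20 hr ambient-temperature incubation.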
# Potency means the concentration at half of the fitted maximal effect.
row,Structure (SMILES),Potency
1,COc1ccc(CSc2nc(CSC)cc(N3CCOCC3)n2)cc1,"inconclusive: 17.8 µM [inhibitor, single point]"
2,O=C(NNc1ccccn1)c1ccccc1CC[N+](=O)[O-],"inconclusive: 10 µM [inhibitor, single point]"
3,O=C(N/N=C/c1c[nH]c2ccccc12)c1ccccc1O,active: 5.62 µM
4,CCOC(=O)c1cccc(N/C=C/C(=O)c2ccc(OC)c(OC)c2)c1,"inconclusive: 8.91 µM [inhibitor, partial curve]"
5,CCOc1cc(C2NN=C(c3ccc(C)cc3)S2)ccc1O (stereo not given),active: 1.12 µM
6,CCS(=O)(=O)N1Cc2ccccc2CC1C(=O)Nc1nnc(SCc2ccc(C#N)cc2)s1 (stereo not given),"inconclusive: 22.4 µM [inhibitor, single point]"
7,O=C(CNC(=O)C1CCCCC1)NC1CCCCC1,inactive
8,COc1ccc(NC(=O)c2cnc3sccn3c2=O)cc1,"inconclusive: 2.24 µM [activator, partial curve, poor fit]"
9,COc1cc(S(=O)(=O)NCCN2CCOCC2)c(OC)cc1Cl,"inconclusive: 14.1 µM [activator, single point]"
10,COCCNc1nnc(SCC(=O)Nc2sc3c(c2C(=O)c2ccccc2)CCCC3)s1,active: 15.8 µM
11,CCOc1ccc(/C=N/NC(=O)CN2CCCCC2)cc1OCC,"inconclusive: 0.631 µM [inhibitor, single point]"
12,COCCCn1c(SCC(=O)Nc2sc3c(c2C#N)CCCC3)nnc1-c1ccncc1,"inconclusive: 0.1 µM [activator, full curve, poor fit]"
13,O=C(c1ccccc1CCc1ccccc1)N1CCOCC1,"inconclusive: 5.62 µM [inhibitor, single point]"
14,Cc1cc(C(=O)CN2C(=O)NC3(CCCc4sccc43)C2=O)c(C)n1-c1ccc(Cl)cc1 (stereo not given),"inconclusive: 15.8 µM [activator, single point]"
15,Nc1nc2n(n1)C(c1cccs1)CC(c1ccccc1)N2 (stereo not given),active: 12.6 µM
16,COc1ccc2nc(C)c(C(N)=O)cc2c1,inactive
17,COc1ccc(-c2nc(C#N)c(N3CCN(c4cccc(Cl)c4)CC3)o2)cc1OC,inactive
18,Cc1nnc(-c2ccccc2)c(=O)n1/N=C/c1c(O)ccc2ccccc12,"inconclusive: 0.891 µM [inhibitor, full curve, poor fit]"
19,CCOC(=O)c1ccc(N2C(=O)c3n[nH]c(C)c3C2c2ccco2)cc1 (stereo not given),inactive
20,Cc1nn(Cc2ccc(Cl)cc2)c(C)c1NC(=O)C(c1ccccc1)c1ccccc1,active: 11.2 µM
21,COc1cc(/C=C/C(=O)c2ccc(NS(=O)(=O)c3ccc(C)cc3)cc2)ccc1OC(F)F,"inconclusive: 5.01 µM [activator, single point]"
22,NC(=O)C1CCN(C(=S)c2ccc(-c3ccc(Br)cc3)o2)CC1,inactive
23,COc1ccc(-c2ocnc2C(=O)N2CCN(C(c3ccccc3)c3ccccc3)CC2)cc1,"inconclusive: 2.82 µM [activator, partial curve, poor fit]"

row,Structure (SMILES),Potency
1,Cc1nc2oc3c(NCc4ccccn4)ncnc3c2c2c1COC(C)(C)C2,inactive
2,CC(C)CNC(=S)N1CCN(C(c2ccccc2)c2ccccc2)CC1,active: 12.6 µM
3,Cc1ccc(Cl)cc1N1CCN(C(=O)Cn2ccc3ccccc3c2=O)CC1,inactive
4,CCN(CC)C(=O)c1ccc2c(c1[N+](=O)[O-])C(=O)c1ccccc1C2=O,"inconclusive: 1.58 µM [inhibitor, full curve, poor fit]"
5,COc1ccc(-c2[nH]ncc2/C=N/NC(=O)c2cc(Br)ccc2O)c(OC)c1,active: 2.24 µM
6,O=C(NC1CC1)C1=C[C@@H](c2csc3ccccc23)C[C@@H](OCc2ccc(CO)cc2)O1,"inconclusive: 35.5 µM [activator, single point]"
7,CCOC(=O)Nc1sc(NS(=O)(=O)c2ccccc2)nc1C,inactive
8,COc1ccc(C(=O)NCCOc2cccc(OC)c2)cc1,"inconclusive: 7.94 µM [activator, partial curve]"
9,CC1CC(C)CN(C(=O)c2cccc(S(=O)(=O)Nc3cc(C(F)(F)F)ccc3Cl)c2)C1 (stereo not given),"inconclusive: 14.1 µM [activator, single point]"
10,C/C(=N\NC(=O)CSCc1ccccc1Cl)c1cccc(NC(=O)c2ccccc2)c1,"inconclusive: 7.08 µM [activator, partial curve, poor fit]"
11,O=C(Nc1ccn(-c2ccccc2)n1)c1ccccc1Br,"inconclusive: 0.794 µM [activator, full curve, poor fit]"
12,Fc1ccc2nc(Nc3nc4c(F)cc(F)cc4s3)sc2c1,active: 8.91 µM
13,O=C(NCc1cccnc1)NC(C(F)(F)F)C(F)(F)F,"inconclusive: 2.24 µM [inhibitor, partial curve, poor fit]"
14,COc1ccc2oc(=O)c(C(=O)NCc3ccc4c(c3)OCO4)cc2c1,"inconclusive: 28.2 µM [activator, single point]"
15,COc1ccc2nc(N3C(=O)CC(Cc4ccc(C)cc4)C3=O)sc2c1 (stereo not given),"inconclusive: 20 µM [activator, single point]"
16,Cc1cccc(OCC(=O)N2CCC(c3ccccc3)C2)c1 (stereo not given),"inconclusive: 0.1 µM [activator, full curve, poor fit]"
17,O=C(CN(c1ccc(Br)cc1)S(=O)(=O)c1ccc(Cl)c([N+](=O)[O-])c1)NCCc1ccccc1,inactive
18,COC(=O)c1ccc(NC(=S)NC(=O)c2c(Cl)cnn2C)cc1,"inconclusive: 12.6 µM [inhibitor, single point]"
19,c1ccc(-c2nn3c(C4CCCCC4)nnc3s2)nc1,inactive
20,N#CCC(=O)N/N=C/c1ccc(Sc2nc3ccccc3s2)o1,"inconclusive: 15.8 µM [inhibitor, single point]"
21,Cc1ccc(S(=O)(=O)Cn2nnnc2C(CC(C)C)N2CCN(C(=O)c3ccco3)CC2)cc1 (stereo not given),"inconclusive: 35.5 µM [activator, single point]"
22,Cc1ccc(-c2nn(-c3ccccc3)cc2/C=C/C(=O)Nc2cccc(S(N)(=O)=O)c2)cc1,"inconclusive: 3.55 µM [activator, partial curve, poor fit]"

# 3 of the compounds above, with tabs:
row	Structure (SMILES)	Potency
11	CCOc1ccc(/C=N/NC(=O)CN2CCCCC2)cc1OCC	inconclusive: 0.631 µM [inhibitor, single point]
12	COCCCn1c(SCC(=O)Nc2sc3c(c2C#N)CCCC3)nnc1-c1ccncc1	inconclusive: 0.1 µM [activator, full curve, poor fit]
13	O=C(c1ccccc1CCc1ccccc1)N1CCOCC1	inconclusive: 5.62 µM [inhibitor, single point]
